Experimental data as given in PubChem BioAssay AID1347422 (Sanford-Burnham Center for Chemical Genomics, 2020).
The full ranking holds about 1,000 compounds; the median of “thermal shift dTm” is about 0.19, and the highest 2% start at about 1.7. Some of the results follow. Active and inactive are the calls of the source.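 How the source made its calls: active means mean rise in melting temperature of at least 1 degC over same-plate control wells; inactive means below that, where a call was filed.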

Amino acid sequences for entries named in this document (tags omitted). A change or cut given only in a name is not applied to a line headed by its entry.
UniProt O00391: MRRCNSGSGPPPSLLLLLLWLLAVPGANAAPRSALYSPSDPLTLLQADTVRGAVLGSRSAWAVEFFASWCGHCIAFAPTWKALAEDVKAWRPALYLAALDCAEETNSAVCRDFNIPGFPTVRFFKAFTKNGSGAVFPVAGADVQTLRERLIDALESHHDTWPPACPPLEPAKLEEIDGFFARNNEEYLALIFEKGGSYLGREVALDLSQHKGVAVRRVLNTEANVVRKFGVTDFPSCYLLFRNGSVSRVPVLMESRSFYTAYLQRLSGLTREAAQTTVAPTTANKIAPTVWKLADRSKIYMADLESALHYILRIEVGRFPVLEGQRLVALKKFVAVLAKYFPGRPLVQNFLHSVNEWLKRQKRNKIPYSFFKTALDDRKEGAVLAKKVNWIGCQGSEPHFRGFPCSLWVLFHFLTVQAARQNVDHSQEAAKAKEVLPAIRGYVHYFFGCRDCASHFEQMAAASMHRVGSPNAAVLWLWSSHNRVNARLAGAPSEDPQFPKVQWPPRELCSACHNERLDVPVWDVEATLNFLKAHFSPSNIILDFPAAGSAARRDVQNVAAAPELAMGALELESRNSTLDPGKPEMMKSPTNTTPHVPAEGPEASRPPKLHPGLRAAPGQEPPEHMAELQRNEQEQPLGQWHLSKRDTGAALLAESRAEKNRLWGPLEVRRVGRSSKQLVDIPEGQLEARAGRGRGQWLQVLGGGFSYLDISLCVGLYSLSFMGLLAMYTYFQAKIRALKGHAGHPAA

biological target: Sulfhydryl oxidase 1 (Homo sapiens) (UniProt O00391); experiment: QSOX1 binders by thermal stabilization, confirmation, QSOX1 inhibitor project, biophysical, protein thermal shift, single concentration (AID 1347422); details: recombinant hQSOX1 thermal shift, Sypro Orange, at 25 µM, stronger effect = higher value;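 further: dTm is compound Tm minus mean Tm of DMSO-only wells on that plate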

| SMILES | thermal shift dTm |
| --- | --- |
| COc1cccc(NC(=O)Nc2ccc(Cc3ccncc3)cc2)c1 | 0.38 °C |
| Cc1cc(O)c(-c2n[nH]c3c2C(c2ccc(Cl)cc2)N(Cc2cccnc2)C3=O)cc1C (stereo unspecified) | 0.07 °C |
| NC(=O)c1ccc(-c2ccc3[nH]ccc3c2)nc1 | 0.79 °C |
| O=C(COc1ccc(Cl)cc1)NCCSCc1ccc(Cl)cc1Cl | 0.06 °C |
| CCc1ccc(C(=O)Nc2nc3c(s2)CCCC3)s1 | inactive: -0.05 °C |
| CCOc1ccc(NC(=O)Nc2nnc(SCCOc3ccccc3)s2)cc1 | 0.48 °C |
| CC(=O)Oc1cccc2ccc(/C=C/c3ccc(F)cc3)nc12 | inactive: -0.12 °C |
| Cc1[nH]nc(-c2ccc(O)c(O)c2O)c1Oc1ccc(F)cc1 | inactive: -5.32 °C |
| CN(c1ccccc1)S(=O)(=O)c1ccc2[nH]c(=O)oc2c1 | 0.95 °C |
| CC(=O)Nc1ccc(NC(=O)Nc2ccc(F)cc2F)cc1 | 0.47 °C |
| CC(=O)Nc1cccc(Nc2cc(-c3ccccc3)nc(C)n2)c1 | active: 1.49 °C |
| Cc1ccccc1-c1nnc(NC(=O)NC(C)Cc2cccs2)s1 (stereo unspecified) | 0.28 °C |
| CCc1ccc(NC(=O)COc2ccccc2F)cc1 | 0.24 °C |
| CCN(Cc1nc(-c2ccc(OC)cc2)no1)C(=O)Nc1cccc(Cl)c1 | 0.23 °C |
| C=CCN1C(=O)c2[nH]nc(-c3cc(C)c(C)cc3O)c2C1c1cccc(Br)c1 (stereo unspecified) | active: 1 °C |
| COc1cccc(CN2c3cccc4cccc(c34)S2(=O)=O)c1 | 0.07 °C |
| O=C(CSc1ncnc2sc(-c3ccccc3)cc12)N1CCCCC1 | 0.25 °C |
| Cc1ccc(NC(=O)Nc2nnc(SCCOc3ccccc3)s2)cc1 | 0.95 °C |
| O=c1c2ccccc2ncn1CCCOc1ccc2ccccc2c1Br | 0.11 °C |
| O=C(Nc1ccccc1-c1ccccc1)c1ccc(NS(=O)(=O)c2ccccc2)cc1 | 0.75 °C |
| O=C(NCCOc1ccccc1Cl)c1ccc(I)cc1 | inactive: -0.09 °C |
| O=C(NCc1nc(-c2ccccc2)no1)c1ccc2ccccc2c1 | 0.02 °C |

Molecules shown so far that contain bromine (two):

| SMILES | thermal shift dTm |
| --- | --- |
| C=CCN1C(=O)c2[nH]nc(-c3cc(C)c(C)cc3O)c2C1c1cccc(Br)c1 (stereo unspecified) | active: 1 °C |
| O=c1c2ccccc2ncn1CCCOc1ccc2ccccc2c1Br | 0.11 °C |

An excerpt of these results, field by field.
CCc1ccc(NC(=O)COc2ccccc2F)cc1
  thermal shift dTm: 0.24 °C
CCN(Cc1nc(-c2ccc(OC)cc2)no1)C(=O)Nc1cccc(Cl)c1
  thermal shift dTm: 0.23 °C

Following part.

| SMILES | thermal shift dTm |
| --- | --- |
| O/N=C/c1ccc(OCc2ccccc2F)c(Br)c1 | 0.11 °C |
| NC(N)=Nc1nc(-c2ccc3ccccc3c2)cs1 | 0.23 °C |
| O=c1[nH]c(SCc2ccc(Cl)c(Cl)c2)nc2ccccc12 | 0.11 °C |
| CCCC(=O)Nc1cccc(NC(=O)c2ccc(CC)cc2)c1 | 0.18 °C |
| Cc1ccc(CCC(=O)Nc2ccc(I)cc2)o1 | inactive: -0.03 °C |
| O=C(NCCc1nc2ccccc2[nH]1)c1nc(-c2cccs2)no1 | 0.15 °C |
| O=C(/C=C/c1cccs1)NCCNC(=O)/C=C/c1cccs1 | 0.44 °C |
| O=C(NCc1ccco1)c1cc2cc(Cl)cc(Cl)c2oc1=O | 0.68 °C |
| CC(=O)Oc1cccc(/C=C/c2ccc3ccccc3n2)c1Cl | 0.11 °C |
| CCc1ccc(-c2cn3ccc(C)cc3n2)cc1 | 0.53 °C |
| CCOC(=O)c1ccc(NC(=O)Nc2ccc(OC)c(OC)c2)cc1 | inactive: -22.2 °C |
| Cc1ccc(NC(=O)c2ccc3c(c2)OCO3)cc1F | active: 1.63 °C |
| COc1ccc(-c2nnc(Nc3ccc(O)cc3)c3ccccc23)cc1 | 0.15 °C |
| Clc1cccc(-c2cn3ccccc3n2)c1 | 0.71 °C |
| OCc1ccc(OCc2ccc(Br)cc2)c(Cl)c1 | 0.02 °C |
| Nc1ccc(-c2cccc(-c3ccn[nH]3)c2)c(F)c1 | 0.23 °C |
| c1ccc(-c2onc3ccc(-c4nnc(-c5ccco5)o4)cc23)cc1 | active: 1.37 °C |
| CCC(=O)Nc1ccc(C(=O)NCCc2ccc(F)cc2)cc1 | 0.02 °C |
| Cc1ccc(/C=C/C(=O)NCC(C)NC(=O)/C=C/c2ccc(C)cc2)cc1 (stereo unspecified) | 0.45 °C |
| CCCc1cc(C(=O)Nc2ccc3[nH]ncc3c2)cs1 | active: 2.61 °C |
| Cn1ncc(C#N)c1NC(=O)c1cc2nc(-c3ccccc3)cc(-c3ccccc3)n2n1 | inactive: -0.18 °C |
| NC(=O)c1ccc(NC(=O)C2CC2(c2ccccc2)c2ccccc2)cc1 (stereo unspecified) | 0.19 °C |

| SMILES | thermal shift dTm |
| --- | --- |
| CNS(=O)(=O)c1ccc(NC(=O)c2ccc(Cl)s2)cc1 | active: 1.11 °C |
| COc1ccc(NC(=O)NCCc2ccc(F)cc2)cc1 | inactive: -6.32 °C |
| COc1cc2c(cc1NC(=O)CSc1nc(N)cc(=O)[nH]1)oc1ccccc12 | 0.13 °C |
| Cc1ccc(NS(=O)(=O)c2ccc3c(c2)CC(C)(C)OC3)cc1 | 0.23 °C |
| CCC(=O)Nc1ccc(NC(=O)c2ccc(CC)cc2)cc1 | 0.23 °C |
| CCSC1=N/C(=C\c2ccc(-c3ccccc3Cl)o2)C(=O)S1 | 0.9 °C |
| CCc1cc(-c2n[nH]c(C)c2Oc2ccc(F)cc2)c(O)cc1O | 0.02 °C |
| O=C(Nc1cccc(F)c1)N1CCN(c2cccc(C(F)(F)F)c2)CC1 | 0.66 °C |
| Cc1sc(NC(=O)C#Cc2ccccc2)c(C(N)=O)c1C | 0.33 °C |
| O=C(Cc1cccs1)Nc1cccc(C(=O)Nc2nccs2)c1 | inactive: -0.01 °C |
| O=C(Nc1ccc2c(c1)OCO2)Nc1ccc(Cl)c(C(F)(F)F)c1 | 0.28 °C |
| O=C(Nc1ccc2[nH]ncc2c1)c1ccc(Br)o1 | 0.97 °C |
| Cc1ccc2c(C)c(C(=O)Nc3ccc(S(=O)(=O)Nc4onc(C)c4C)cc3)oc2c1 | active: 1.03 °C |
| CC(C)c1cc(NCc2cccnc2)n2ncc(-c3ccccc3)c2n1 | 0.37 °C |
| CC1=C(C)CC(C(=O)Nc2nc(-c3ccc(CC(C)C)cc3)cs2)C(C(=O)O)C1 (stereo unspecified) | 0.02 °C |
| O=C(Nc1ccccc1)Oc1ccc(Cl)cc1Br | 0.19 °C |
| C=CCOc1cccc(/C=C2\N=C(SCc3ccccc3)SC2=O)c1 | 0.4 °C |
| Cc1ccc(S(=O)(=O)Nc2cc(Cl)c(O)c(C)c2C)cc1 | 0.34 °C |
| COc1ccc2c(Cl)c(C(=O)NCCc3ccc(S(N)(=O)=O)cc3)sc2c1 | inactive: 0 °C |
| CCCNC(=O)Nc1cc2oc3ccccc3c2cc1OC | 0.28 °C |
| COc1cccc(NC(=S)NCC(C)(C)CNC(=S)Nc2cccc(OC)c2)c1 | 0.21 °C |
| Cc1cc(C)cc(NC(=S)NCC(O)c2ccccc2)c1 (stereo unspecified) | inactive: -0.03 °C |
